Source: PubChem BioAssay AID540276 (National Center for Advancing Translational Sciences (NCATS), 2011)
Among all 300,000 compounds or so, about 5,400 (1.8%) were called active. The shares of active, inactive and inconclusive entries below differ from those in the screen. Calls follow the shape of the full dose curve; tested in HEK293 cells. A potency beside an inconclusive call is a rough fit, not a confirmed value.

experiment: qHTS for inhibitors of binding or entry into cells for Marburg Virus; details: Marburg virus pseudotyped entry inhibition, cell reporter; series mostly up to 37.8 µM
Potency is read from the fitted curve at half-maximal effect.

Compound	Potency
COc1cc(NC(=O)c2ccccc2)cc(OC)c1	inactive
O=C1NC(=S)NC1=Cc1ccc2c(c1)CCC2	inconclusive: 0.631 µM [activator, single point]
CCn1ncc(CNC(=O)CCSc2nc(-c3ccco3)cc(C(F)(F)F)n2)c1C	inconclusive: 8.91 µM [inhibitor, partial curve, poor fit]
CN(C)CCCN1C(=O)c2cccc3cccc(c23)C1=O	inconclusive: 22.4 µM [inhibitor, single point]
COc1ccc(OC)c(-c2cc(-c3cccnc3)nc(N)c2C#N)c1	active: 1.41 µM
Cc1nc(C(=O)N/N=C/c2[nH]ncc2Br)cs1	inconclusive: 35.5 µM [activator, single point]
Cc1[nH]c2ccccc2c1C(=O)COC(=O)c1cccc(S(=O)(=O)N2CCCCC2)c1	inconclusive: 35.5 µM [inhibitor, single point]
Cc1occc1-c1n[nH]c(=S)n1-c1ccccc1	inconclusive: 31.6 µM [activator, single point]
CCCCN1C=CC(=C2C(=O)c3ccccc3C2=O)C=C1	inconclusive: 7.08 µM [inhibitor, partial curve, poor fit]
COC(=O)c1scc(C)c1S(=O)(=O)Nc1ccc(C)cc1	inconclusive: 35.5 µM [inhibitor, single point]
CCc1nnc2c3cnn(-c4ccccc4)c3ncn12	inactive
O=C(Nc1ccccc1)N1CCC(=S)Nc2ccccc21	inconclusive: 35.5 µM [inhibitor, single point]
Cc1ccc(-n2nnnc2SCC(=O)Nc2cccnc2Cl)cc1	inconclusive: 10 µM [inhibitor, partial curve]
COc1ccc(/C=N/NC(=S)Nc2ccccc2[N+](=O)[O-])cc1O	inconclusive: 35.5 µM [inhibitor, single point]
Cc1ccc(CN2CCC(CO)(CC3CCCCO3)CC2)o1 (stereo not given)	inactive
O=C1CC(N2CCN(c3ccc(F)cc3)CC2)C(=O)N1Cc1ccc(N2CCCC2=O)cc1 (stereo not given)	inactive
COc1ccccc1C(=O)OCc1nc(N)nc(Nc2ccccc2C)n1	inconclusive: 0.631 µM [activator, full curve, poor fit]
Cc1ccc([N+](=O)[O-])cc1S(=O)(=O)N(C)C	inconclusive: 1.26 µM [inhibitor, full curve, poor fit]
Cc1ccc([C@H]2C[C@H](n3cc(C4CC4)nn3)[C@@H](O)CN2Cc2cccs2)cc1	inconclusive: 11.2 µM [inhibitor, full curve, poor fit]
CCN(CCCNC(=O)CN(C)S(=O)(=O)c1cccc2nsnc12)c1cccc(C)c1	inactive
Cc1cc(C)n(-c2ccc(Cl)c(C(=O)O)n2)n1	inconclusive: 35.5 µM [activator, single point]
COc1ccc(C(=O)Nc2ccccn2)cc1S(=O)(=O)N1CCOCC1	inactive
CCCCOc1ccc(NC(=O)CSc2cccc3cccnc23)cc1	inactive
CCc1ccc(C(=O)NNC(=O)C2CSC3(C)CCC(=O)N23)cc1 (stereo not given)	inconclusive: 5.62 µM [activator, single point]

Compound	Potency
COc1ccc(C(CC(=O)N2CCC3(CC2)OCCO3)NS(=O)(=O)c2ccc(F)cc2)cc1 (stereo not given)	inconclusive: 31.6 µM [activator, single point]
COc1ccc(S(=O)(=O)N2CCOC2CNC(=O)C(=O)NCc2ccc(F)cc2)cc1OC (stereo not given)	inconclusive: 0.178 µM [activator, full curve, poor fit]
CCN(CC)CCN1c2ccccc2Sc2ccc3ccccc3c21	active: 10 µM
Cc1cccc(NC(=S)N/N=C/c2c[nH]c3ccccc23)c1	inconclusive: 8.2 µM [inhibitor, partial curve]
CCN(CC)CCn1c2c(c(SCC(=O)Nc3ccc(F)c(F)c3)nc1=O)CCC2	inconclusive: 7.08 µM [inhibitor, partial curve, poor fit]
Cc1ccc(-c2noc(CCC(=O)N(C)c3ccccc3F)n2)cc1	inactive
C=CCSc1nc2c(sc3nc(C)cc(C)c32)c(=O)[nH]1	inactive
O=C(Nc1ccc(S(=O)(=O)N2CCCCC2)cc1)C1CC(=O)N(c2ccccc2)C1 (stereo not given)	inactive
CCCCNC(=S)N/N=C/c1ccccc1F	inconclusive: 1.41 µM [activator, partial curve, poor fit]
Cc1cc(C(=O)COc2cccc3cccnc23)c(C)n1C	inconclusive: 15.8 µM [activator, single point]
CC1CN(C(=O)COc2ccc3ccccc3c2)CC(C)O1 (stereo not given)	inactive
O=C(COC(=O)c1ccc(O)cc1)c1ccc(S(=O)(=O)N2CCCCC2)cc1	inactive
O=C(NCCc1ccccc1)C(c1cccs1)N(C(=O)CCl)c1ccc(Cl)cc1 (stereo not given)	inconclusive: 23.1 µM [inhibitor, partial curve, poor fit]
O=C(Cc1ccc(Cl)cc1)Nc1ccc(Br)cc1	inactive
NS(=O)(=O)c1ccc(CNc2ncnc3sccc23)cc1	inactive
O=C(Nc1cccnc1)c1c(F)c(F)c(F)c(F)c1F	inactive
CCC(=O)Nc1c(S(=O)(=O)c2ccccc2)c2nc3ccccc3nc2n1C(C)c1ccccc1 (stereo not given)	inconclusive: 8.91 µM [inhibitor, partial curve, poor fit]
CCCCCc1c(C)nc(NCc2ccccc2)[nH]c1=O	inactive
COc1ccc(-c2nnc(NC(=O)c3ccc(S(=O)(=O)N4CCc5ccccc5C4)cc3)o2)cc1	inconclusive: 20 µM [inhibitor, partial curve, poor fit]
O=C(COc1ccccc1)Nc1ccccc1N1CCCCC1	inconclusive: 35.5 µM [inhibitor, single point]
COc1ccc(CNc2oc(COc3ccccc3Cl)nc2C#N)cc1	inconclusive: 23.1 µM [inhibitor, partial curve, poor fit]
COc1cccc(NC(=O)COC(=O)c2sccc2C)c1	inactive
O=C1CCCC2=C1C(c1ccccc1)CC(=O)N2c1ccc(F)cc1F (stereo not given)	inconclusive: 14.1 µM [activator, single point]
Nc1c(C(=O)c2ccccc2)oc2ccc(Br)cc12	inactive

Compound	Potency
Cc1ccc(OCCn2c(=O)sc3ccccc32)cc1	inconclusive: 3.16 µM [activator, partial curve, poor fit]
CCOc1ccc(NS(=O)(=O)c2ccc(OCC)c3ncccc23)cc1	inconclusive: 13 µM [inhibitor, partial curve]
COc1cccc(C(=O)C2CCCN(Cc3cccn3-c3cccnc3)C2)c1 (stereo not given)	inconclusive: 10 µM [inhibitor, partial curve, poor fit]
Cc1ccc(NC(=O)NC2=N/C(=C(/C#N)C(=O)N3CCCC3)c3ccccc32)cc1	inconclusive: 0.112 µM [inhibitor, full curve, poor fit]
CCOC(=O)c1ccc(NCc2nc3ccccc3n2C)cc1	inconclusive: 1.16 µM [inhibitor, full curve, poor fit]
Clc1ccc(Cn2ccc(C3CC3)n2)cc1	inactive
CCCCn1c(CNC(=O)C23CC4CC(CC(C4)C2)C3)nnc1SCC(=O)Nc1ccc(C)cc1	inconclusive: 15.8 µM [inhibitor, single point]
CC1CCCCN1Cc1c(O)ccc2c(=O)c(-c3ccccc3Cl)c(C(F)(F)F)oc12 (stereo not given)	inconclusive: 8.91 µM [inhibitor, partial curve, poor fit]
Nc1ccc2nc(SCC(=O)N3CCN(c4ccccc4)CC3)sc2c1	inconclusive: 8.91 µM [inhibitor, partial curve, poor fit]
Cc1cccc(Nc2nnc(SCC(=O)Nc3ccccc3[N+](=O)[O-])s2)c1C	inconclusive: 3.55 µM [inhibitor, partial curve]
Cc1ccc(NC(=O)C(C)OC(=O)CCN=C2NS(=O)(=O)c3ccccc32)cc1 (stereo not given)	inconclusive: 2.82 µM [inhibitor, partial curve, poor fit]
COc1cc(CNCCN2CCOCC2)ccc1OCc1ccc(Cl)cc1Cl	inconclusive: 35.5 µM [inhibitor, single point]
COC(=O)c1nnn(CC(=O)NC(=O)Nc2ccc(F)cc2)c1C(=O)OC	inconclusive: 1.26 µM [activator, partial curve, poor fit]
CC(=O)N1CCc2cc(Br)cc(S(=O)(=O)N3CCC(C(=O)Nc4cccc(C)c4C)CC3)c21	inactive
CCOC(=O)C1CCCN(C(=O)CN2C(=O)c3ccccc3C2=O)C1 (stereo not given)	inactive
COc1ccccc1NS(=O)(=O)c1cc(NC(=O)c2ccncc2)ccc1N1CCOCC1	inactive
O=C(c1cnn(C(=O)CN2CCCC2=O)c1)c1ccccc1O	inconclusive: 15.8 µM [inhibitor, single point]
CC(NC(=O)NCC1CCCO1)(C(F)(F)F)C(F)(F)F (stereo not given)	inconclusive: 35.5 µM [activator, single point]
COc1ccccc1N/C(N)=N/c1nc(C(F)(F)F)cc(=O)[nH]1	inconclusive: 18.3 µM [inhibitor, partial curve, poor fit]
COCCNC(=S)N1CCc2cc(OC)c(OC)cc2C1COc1ccc(C(C)C)cc1 (stereo not given)	active: 13 µM
O=c1c2cc(N3CCOCC3)ccc2[nH]c(=S)n1CCCN1CCCC1	inconclusive: 29.1 µM [inhibitor, single point]
Cc1cccc(C)c1OCC(O)CNS(=O)(=O)c1ccccc1C(=O)N1CCCCC1 (stereo not given)	inconclusive: 16.4 µM [inhibitor, single point]

Some of these compounds in order of number of heavy atoms, smallest number first.
Compound	Potency
CC(NC(=O)NCC1CCCO1)(C(F)(F)F)C(F)(F)F (stereo not given)	inconclusive: 35.5 µM [activator, single point]
CCOC(=O)c1ccc(NCc2nc3ccccc3n2C)cc1	inconclusive: 1.16 µM [inhibitor, full curve, poor fit]
Cc1cccc(C)c1OCC(O)CNS(=O)(=O)c1ccccc1C(=O)N1CCCCC1 (stereo not given)	inconclusive: 16.4 µM [inhibitor, single point]
